In patent US20190345446A1 (BROAD INSTITUTE, published 2019):
No constants are given. Whether binding was seen depends on the method and setting. In cells and extracts the contact can be indirect. Some binding calls cover weakened binding; strength is not graded here.

Assays:
[1] = biological target: T1, Fas (mouse death receptor Fas, endogenous in EL4 cells and primary mouse CD4+ T cells) (mouse) (UniProt P25446); assay: co-immunoprecipitation with anti-Fas Ab from primary mouse CD4+ T cells, unstimulated or stimulated with multimerized FasL; Western blot
T1 sequence (looked up): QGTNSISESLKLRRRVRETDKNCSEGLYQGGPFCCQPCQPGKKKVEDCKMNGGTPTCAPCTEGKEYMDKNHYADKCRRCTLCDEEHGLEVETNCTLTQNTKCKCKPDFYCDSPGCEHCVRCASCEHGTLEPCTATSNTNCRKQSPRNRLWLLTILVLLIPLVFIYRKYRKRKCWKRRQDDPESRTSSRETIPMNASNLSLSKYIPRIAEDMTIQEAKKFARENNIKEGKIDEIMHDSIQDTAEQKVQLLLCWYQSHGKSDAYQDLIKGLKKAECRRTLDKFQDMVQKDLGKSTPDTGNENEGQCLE

[2] = biological target: T1, Fas (mouse death receptor Fas, endogenous in EL4 cells and primary mouse CD4+ T cells) (mouse); assay: co-immunoprecipitation, legend of FIGS. 5A-5E (panels 5D, 5E)
[3] = biological target: T1, Fas (mouse death receptor Fas, endogenous in EL4 cells and primary mouse CD4+ T cells) (mouse); assay: co-immunoprecipitation (discussion of the results)
[4] = biological target: T1, Fas (mouse death receptor Fas, endogenous in EL4 cells and primary mouse CD4+ T cells) (mouse); assay: co-immunoprecipitation from EL4 cells stimulated with biotinylated anti-Fas Ab and streptavidin; Protein G beads; Western blot

Measured: binding

B1: STAT1 (mouse signal transducer and activator of transcription 1, endogenous) (protein, UniProt P42225 2-749, looked up)
chain: SQWFELQQLDSKFLEQVHQLYDDSFPMEIRQYLAQWLEKQDWEHAAYDVSFATIRFHDLLSQLDDQYSRFSLENNFLLQHNIRKSKRNLQDNFQEDPVQMSMIIYNCLKEERKILENAQRFNQAQEGNIQNTVMLDKQKELDSKVRNVKDQVMCIEQEIKTLEELQDEYDFKCKTSQNREGEANGVAKSDQKQEQLLLHKMFLMLDNKRKEIIHKIRELLNSIELTQNTLINDELVEWKRRQQSACIGGPPNACLDQLQTWFTIVAETLQQIRQQLKKLEELEQKFTYEPDPITKNKQVLSDRTFLLFQQLIQSSFVVERQPCMPTHPQRPLVLKTGVQFTVKSRLLVKLQESNLLTKVKCHFDKDVNEKNTVKGFRKFNILGTHTKVMNMEESTNGSLAAELRHLQLKEQKNAGNRTNEGPLIVTEELHSLSFETQLCQPGLVIDLETTSLPVVVISNVSQLPSGWASILWYNMLVTEPRNLSFFLNPPCAWWSQLSEVLSWQFSSVTKRGLNADQLSMLGEKLLGPNAGPDGLIPWTRFCKENINDKNFSFWPWIDTILELIKNDLLCLWNDGCIMGFISKERERALLKDQQPGTFLLRFSESSREGAITFTWVERSQNGGEPDFHAVEPYTKKELSAVTFPDIIRNYKVMAAENIPENPLKYLYPNIDKDHAFGKYYSRPKEAPEPMELDDPKRTGYIKTELISVSEVHPSRLQTTDNLLPMSPEEFDEMSRIVGPEFDSMMSTV
binds: all assays above
